# In publication PMC8667318:
# Protein sequences, listed by entry. Tags and fused reporters are not part of them. Lines headed by an entry give the natural chain unless they say otherwise; changes in a name come on top. Residues count along the entry.
# UniProt Q99705: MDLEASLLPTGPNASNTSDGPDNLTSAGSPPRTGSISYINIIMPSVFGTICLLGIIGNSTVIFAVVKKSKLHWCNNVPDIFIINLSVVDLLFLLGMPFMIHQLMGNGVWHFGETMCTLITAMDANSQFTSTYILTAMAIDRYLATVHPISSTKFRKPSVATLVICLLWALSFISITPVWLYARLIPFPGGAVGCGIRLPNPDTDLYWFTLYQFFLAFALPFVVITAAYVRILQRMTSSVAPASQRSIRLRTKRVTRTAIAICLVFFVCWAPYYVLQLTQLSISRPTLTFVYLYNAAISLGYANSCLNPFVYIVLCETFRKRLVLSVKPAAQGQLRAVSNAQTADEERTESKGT
# UniProt P01127, residues 82-190: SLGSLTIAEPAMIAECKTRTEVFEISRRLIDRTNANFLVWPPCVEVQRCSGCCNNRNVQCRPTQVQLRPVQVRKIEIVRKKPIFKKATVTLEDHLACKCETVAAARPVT
# No constants are given. Whether binding was seen depends on the method and setting. Binding can be weak; no strength is given.
# Target: Recombinant human MCHR1 Protein (human) (UniProt Q99705)
# Experiment: far-Western, overlay or dot blot; western ligand blot: indicated amounts of recombinant human MCHR1 electrophoresed under non-reducing conditions, transferred to nitrocellulose, incubated 1 hour with biotinylated PDGF-BB, detected with streptavidin-HRP; both purified
substance,measurement,value
biotinylated PDGF-BB (from UniProt P01127 82-190) (ligand),binding,binds
